{
  "source": "patent US9309514B2",
  "about": "“G protein-coupled purinergic receptor Gpr17 mediates orexigenic effects of FoxO1 in AgRP neurons” (THE TRUSTEES OF COLUMBIA UNIVERSITY IN THE CITY OF NEW YORK, priority 2012, dated 2016)",
  "origin": "cited, not measured here",
  "test_system": "platelet",
  "conditions": "cited from earlier work",
  "data": [
    {"smiles": "CSCCNc1nc(SCCC(F)(F)F)nc2c1ncn2[C@@H]1O[C@H](COP(=O)(O)OP(=O)(O)C(Cl)(Cl)P(=O)(O)O)[C@@H](O)[C@H]1O", "note": "[cangrelor, [dichloro-[[[(2R,3S,4R,5R)-3,4-dihydroxy-5-[6-(2-methylsulfanylethylamino)-2-(3,3,3-trifluoropropylsulfanyl)purin-9-yl]oxolan-2-yl]methoxy-hydroxyphosphoryl]oxy-hydroxyphosphoryl]methyl]phosphonic acid]", "values": [
      {"measurement": "time to peak inhibition", "setting": "infusion of 4-μg/kg per minute", "result": 15, "unit": "min"},
      {"measurement": "time to return to normal platelet function", "setting": "patients treated with cangrelor as an anticoagulant", "result": 60, "unit": "min"}
    ]}
  ]
}
